Values joined by “and” are separate entries in the source; they are usually repeats but may differ in a detail not shown here. Equal values may be shown once. In all, about 230,000 compounds went through this assay and about 310 (0.13%) were called active. Inconclusive results, whose numbers are uncertain, are shown with a selection of clear calls. The call rests on the fitted dose curve; in most records, active means well fitted activation curve with a large enough effect; inconclusive means small, poorly fitted or top-dose-only effect; inactive means no such curve, though single readings can be large or run the other way. A potency beside an inconclusive call is a rough fit, not a confirmed value.
Assay: qHTS Multiplex Assay to Identify Dual Action Probes in a Cell Model of Huntington: Cytoprotection (ATP); further: nearly all actives have a fitted effect of over 45% in size;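 on cytoprotection (ATP increase): toxic huntingtin expression switched on by the ecdysone agonist tebufenozide; % of control where 0% means no effect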
Details: PC12 HTT-Q103 induced, ATP luminescence, 40 h; cytoprotection (ATP increase): at 56.4 µM (top of the series) unless noted
How it was run: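 ATP quantification (ATPlite) reports survival of PC12 cells in which tebufenozide, 100 nM final, switches on Htt exon 1 with 103 glutamines linked to GFP; compounds are titrated.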
Potency means the concentration at half of the fitted maximal effect.

Row | SMILES | cytoprotection (ATP increase) | Potency
1 | Cc1cc2nc3n(c2cc1C)CC1CC(C(=O)NCC2CC2)N(C)C31 (stereo unspecified) | inactive: -7.54% [at 10 µM] | –
2 | COc1ccc(CCNC(=O)c2ccc(Cl)c(S(=O)(=O)N(C)c3ccccc3)c2)cc1 | inactive: -0.235% [at 10 µM] | –
3 | C=CCNC(=S)NNC(=O)c1csc(C)c1CC | – | inconclusive: 5.62 µM [activator, single point]
4 | CC1(C)CC(=O)C2=C(C1)Oc1nc3ccccc3cc1C2C(C#N)C#N (stereo unspecified) | – | inconclusive: 22.4 µM [activator, single point]
5 | O=C(OCC(=O)N1CCc2ccccc2C1)c1ccc(N2CCOCC2)c([N+](=O)[O-])c1 | inactive: 9.93% [at 10 µM] | –
6 | CCNc1ncc2nc(-c3cn(C)c4ccccc34)c(=O)n(Cc3cccc(OC)c3)c2n1 | – | inconclusive: 3.16 µM [activator, partial curve]
7 | Cc1cccc(NC(=O)c2ccc(N3CCOCC3)c([N+](=O)[O-])c2)n1 | inactive: -13.6% [at 10 µM] | –
8 | O=C(O)CCn1cc(/C=C2\NC(=S)N(c3ccccc3)C2=O)c(-c2ccc(Br)cc2)n1 | – | inconclusive: 0.005 µM [activator, full curve, poor fit]
9 | CCCCCCCCCCCCC/C=C\[C@H](O)[C@H](N)CO | inactive: -16.4% [at 1.9 µM] | –
10 | CN(C)/C=C1\Cc2ccccc2C1=O | inactive: 9.03% [at 10 µM] | –
11 | O=C1CC(c2ccccc2)CC2=C1C=Nc1ccccc1N2 (stereo unspecified) | – | inconclusive: 0.0056 µM [activator, full curve, poor fit]
12 | CCN1C(=O)C(CC(=O)Nc2ccc(OC)cc2)N(CCc2ccc(OC)cc2)C1=S (stereo unspecified) | – | inactive
13 | COc1ccc(C(C)=O)cc1CSc1nc2cc(C(=O)O)ccc2c(=O)n1Cc1ccccc1 | inactive: 0.648% [at 10 µM] | –
14 | CC(SC#N)C(=O)C12CC3CC(CC(C3)C1)C2 (stereo unspecified) | – | inconclusive: 11.2 µM [activator, single point]
15 | O=C(CN1C2=NCCCN2c2ccccc21)c1ccc([N+](=O)[O-])cc1 | – | inactive
16 | COC(=O)CN(C)C(=O)CC1C(=O)NCCN1CC(C)(C)C (stereo unspecified) | – | active: 1.12 µM
17 | CC(/C=N\N1CCN(c2ccc(Cl)cc2)CC1)=C\c1ccccc1 | – | active: 3.16 µM
18 | CCOC(=O)c1sc2nc3c(cc2c1N)COC(C)(CC)C3 (stereo unspecified) | – | inconclusive: 0.316 µM [activator, partial curve]
19 | O=C(O)c1cccnc1Nc1cccc(C(F)(F)F)c1 | – | inconclusive: 0.178 µM [activator, full curve]
20 | Cc1ccc(-c2nc3ccccc3[nH]2)cc1NC(=O)c1ccc2c(c1)OCO2 | – | inactive
21 | c1ccc(N2CCN(c3nc4cc5c(cc4s3)OCO5)CC2)cc1 | inactive: -10.8% [at 10 µM] | –

Whole records, looked up by structure. Values in the order: cytoprotection (ATP increase) | Potency
`O=C(O)c1cccnc1Nc1cccc(C(F)(F)F)c1` as listed: – | inconclusive: 0.178 µM [activator, full curve]
`CCOC(=O)c1sc2nc3c(cc2c1N)COC(C)(CC)C3` (stereo unspecified) as listed: – | inconclusive: 0.316 µM [activator, partial curve]
`COC(=O)CN(C)C(=O)CC1C(=O)NCCN1CC(C)(C)C` (stereo unspecified) as listed: – | active: 1.12 µM

(further entries)

Row | SMILES | cytoprotection (ATP increase) | Potency
22 | O=S(=O)(/C=C/c1ccccc1)NCc1ccccc1Cl | – | inconclusive: 3.98 µM [activator, partial curve]
23 | COc1ccc(Nc2cc(C)nc3nc(C)nn23)c(OC)c1 | – | inactive
24 | CCOc1ccccc1NC(=O)CCN1CCN(S(=O)(=O)c2ccc(Br)cc2)CC1 | inactive: -9.12% [at 10 µM] | –
25 | COc1ccc2[nH]c(C)c(CCNC(=S)Nc3ccccc3OC)c2c1 | – | inconclusive: 0.112 µM [activator, partial curve, poor fit]
26 | Cc1cc2c(ncn2C(C)C)c(NS(=O)(=O)c2ccc(F)cc2)c1C | – | inactive
27 | O=C1CC[C@@]23CCCN2C(=O)CCCC3C1 (stereo partly specified) | – | inconclusive: 14.1 µM [activator, single point]
28 | CN(C)c1cccc(O)c1 | – | inactive
29 | C[N+](C)(C)CCCCCC[N+](C)(C)C | – | inconclusive: 2.24 µM [activator, full curve, poor fit] and inconclusive: 1 µM [activator, full curve, poor fit]
30 | COc1ccc(NC(=O)CNS(=O)(=O)c2cccs2)cc1 | – | inconclusive: 4.47 µM [activator, single point]
31 | COc1ccc(C(=O)N2CCN(c3ccccc3OC)CC2)cc1 | – | inconclusive: 31.6 µM [activator, single point]
32 | C=C(NC(=O)C(=C)NC(=O)c1csc(C2=N[C@@H]3c4csc(n4)[C@@H]4NC(=O)c5csc(n5)[C@@H]([C@](C)(O)[C@H](C)O)NC(=O)[C@@H]5CSC(=N5)/C(=C/C)NC(=O)[C@@H]([C@H](C)O)NC(=O)c5csc(n5)[C@]3(CC2)NC(=O)[C@@H](C)NC(=O)C(=C)NC(=O)[C@@H](C)NC(=O)[C@@H]([C@@H](C)CC)N[C@H]2C=Cc3c([C@H](C)O)cc(nc3[C@@H]2O)C(=O)O[C@H]4C)n1)C(N)=O | – | inconclusive: 5.01 µM [activator, full curve, poor fit]
33 | COc1ccc(C(=O)C[n+]2cn(C(F)F)c3ccccc32)c(F)c1 | – | inconclusive: 0.316 µM [activator, partial curve]
34 | O=C(NN1C(=O)C2C3C=CC(C4CC34)C2C1=O)c1ccccc1Cl (stereo unspecified) | – | inconclusive: 5.62 µM [activator, single point]
35 | CC(=O)NC(=S)Nc1ccc(S(=O)(=O)Nc2nc(C)cc(C)n2)cc1 | – | inconclusive: 0.0089 µM [activator, full curve, poor fit]
36 | COc1ccccc1C/C(N)=N/OC(=O)COc1cc(C)cc(C)c1C | – | inconclusive: 1.58 µM [activator, partial curve, poor fit]
37 | O=C(NC(=S)Nc1ccc(N2CCCCC2)c(Cl)c1)c1ccc2c(c1)OCCO2 | – | inconclusive: 0.501 µM [activator, partial curve]
38 | COc1cc(C2C(C#N)=C(N)Oc3n[nH]c(-c4ccncc4)c32)cc(OC)c1OC (stereo unspecified) | – | inconclusive: 1.26 µM [activator, single point]
39 | CCOC(=O)C(C)C(C)=O (stereo unspecified) | – | inconclusive: 22.4 µM [activator, single point]
40 | O=C(Nc1cccc(C(F)(F)F)c1)C(SCCO)c1ccccc1 (stereo unspecified) | inactive: -5.49% [at 10 µM] | –
41 | O=S(=O)(CC(CN1CCCC1)N1CCCC1)c1ccc2ccccc2c1 (stereo unspecified) | – | inconclusive: 5.62 µM [activator, single point]
